Experimental findings from the supplement of paper PMC12542422 are described below.

Structures are written as SMILES. Where a name gives a salt, the structure may show the parent alone. ± gives the standard deviation of the averaged measurements. The list shows a part of the results. These are raw signals, not scaled to a control.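 Ribosome-assembly readouts in HeLa cells were imaged via ENP1 staining, with or without export block, or inducible tagged ribosomal protein reporters. Machine learning classified per-cell signal location versus solvent (DMSO) controls. Hits surpassed the DMSO false-positive mean by five standard deviations and were visually confirmed; three biological replicates.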

This test concerns HeLa RPL29-GFP reporter. The test is described as follows: fraction of reporter-positive cells with nuclear (nucleolar or nucleolar/nucleoplasmic) RPL29-GFP (MainHitrate); higher = more cells with nucleolar/nuclear readout signal (for ENP1 -LMB: less RNAPI inhibition; for +LMB ENP1 and RP reporters: stronger nuclear/nucleolar retention, i.e. ribosome biogenesis defect). The conditions noted are these: concentration: 1 µM; treatment time: 6 h.
On to `COc1cc2c(cc1OC)CC(=O)N(CCCN(C)C[C@H]1Cc3cc(OC)c(OC)cc31)CC2` [Ivabradine HCl (Procoralan)], for which the “fraction of reporter-positive cells with nuclear” value (“fraction” below) is 0.203 ± 0.028.
For the compound `NC(CO)(CO)CO` [Trometamol], the “fraction” value was determined as 0.226 ± 0.067.
Take `COc1ccc(CNc2nc(N3CCC[C@H]3CO)ncc2C(=O)NCc2ncccn2)cc1Cl` [Avanafil]: the “fraction” value worked out at 0.207 ± 0.058.
For the compound `C[C@@H]1C(=O)O[C@H]2C[C@@]34[C@H]5C[C@@H](C(C)(C)C)[C@]36[C@@H](OC(=O)[C@@H]6O)O[C@@]4(C(=O)O5)[C@]21O` [Ginkgolide A], the “fraction” value was 0.208 ± 0.058.
As for `CCOc1nc2cccc(C(=O)O)c2n1Cc1ccc(-c2ccccc2-c2noc(=O)[nH]2)cc1` [Azilsartan (TAK-536)], the figure is 0.211 ± 0.055; as for `O=C(c1ccc(OCCN2CCCCC2)cc1)c1c(-c2ccc(O)cc2)sc2cc(O)ccc12` [Evista (Raloxifene Hydrochloride)], 0.22 ± 0.074.
Consider `CN(CCOc1ccc(CC2SC(=O)NC2=O)cc1)c1ccccn1` (configuration not stated) [Rosiglitazone (Avandia)], for which the “fraction” value was found to be 0.231 ± 0.083.
`CCC(CC)[C@H](NC(C)=O)[C@@H]1[C@H](O)[C@@H](C(=O)O)C[C@H]1NC(=N)N` [Peramivir Trihydrate]: the “fraction” value was determined as 0.208 ± 0.061.
For the compound `COc1c(N2CCNC(C)C2)c(F)cc2c(=O)c(C(=O)O)cn(C3CC3)c12` (configuration not stated) [Gatifloxacin], the “fraction” value was 0.193 ± 0.07.
Take `CCCCc1oc2ccc(NS(C)(=O)=O)cc2c1C(=O)c1ccc(OCCCN(CCCC)CCCC)cc1` [Dronedarone HCl (Multaq)]: the “fraction” value was 0.223 ± 0.067.
With `Nc1cc(N2CCCCC2)nc(N)[n+]1[O-]` [Minoxidil], the “fraction” value was found to be 0.22 ± 0.055.
As for `Cc1nnc(C(=O)NC(C)(C)c2nc(C(=O)NCc3ccc(F)cc3)c(O)c(=O)n2C)o1` [Raltegravir (MK-0518)], the figure is 0.229 ± 0.077.
